Values joined by “and” are separate entries in the source; they are usually repeats but may differ in a detail not shown here. Equal entries are not always repeated. Where two headings read alike, the source gives them in different places. Some entries share one result that the patent states for a list of compounds. For some of these results: The name of at least one read-out is uncertain. For at least one compound, name, drawing or mass did not settle the structure.
Tests used:
Assay type in all cases: cell-based, human
HCT116 cells [1] = test: Combination with Example 24, inhibitory effect on sphere-forming ability (Test Example 3)
H460 cells [2] = test: as above
HCT116 cells [3] = test: Combination with Example 24, inhibitory effect on cell proliferation (Test Example 5)
H460 cells [4] = test: as above
[5] = HCT116, test compound combined with Example 24 (10-1000 nmol/L), 4 days
[6] = H460, test compound combined with Example 24 (10-1000 nmol/L), 4 days
[7] = HCT116, medium with 10% FBS, test compound combined with Example 24 (10-1000 nmol/L), 4 days
[8] = H460, medium with 10% FBS, test compound combined with Example 24 (10-1000 nmol/L), 4 days

| Molecule | sCI, minimum (Ld)/(Lc) of sphere formation rate (HCT116 cells [1]; [5]) | sCI, minimum (Ld)/(Lc) of sphere formation rate (H460 cells [2]; [6]) | sCI, minimum (Ld)/(Lc) of cell survival rate (HCT116 cells [3]; [7]) | sCI, minimum (Ld)/(Lc) of cell survival rate (H460 cells [4]; [8]) | sCI, minimum (Ld)/(Lc) of sphere formation rate (HCT116 cells [1]) | sCI, minimum (Ld)/(Lc) of sphere formation rate (H460 cells [2]) | sCI, minimum (Ld)/(Lc) of cell survival rate (HCT116 cells [3]) | sCI, minimum (Ld)/(Lc) of cell survival rate (H460 cells [4]) |
| --- | --- | --- | --- | --- | --- | --- | --- | --- |
| CC(=O)Nc1ccc(OC[C@](C)(O)C(=O)Nc2ccc([N+](=O)[O-])c(C(F)(F)F)c2)cc1 [Andarine] | 0.9-1^ | 0.9-1^ | 0.9-1^ | 0.8-0.9 | – | – | – | – |
| Cn1c(CCCC(=O)O)nc2cc(N(CCCl)CCCl)ccc21 [Bendamustine] | – | – | – | – | 0.8-0.9 | 0.9-1^ | 0.9-1^ | 0.8-0.9 |
| CC1=C2C[C@H]3[C@@H](CC=C4C[C@@H](O)CC[C@@]43C)[C@@H]2CC[C@]12O[C@@H]1C[C@H](C)CN[C@H]1[C@H]2C [Cyclopamine] | 0.8-0.9 | 0.9-1^ | 0.9-1^ | 0.7-0.8 | – | – | – | – |
| COc1cccc2c1C(=O)c1c(O)c3c(c(O)c1C2=O)C[C@@](O)(C(C)=O)C[C@@H]3O[C@H]1C[C@H](N)[C@H](O)[C@H](C)O1 [Daunorubicin] | – | – | – | – | 0.7-0.8 | – | 0.9-1^ | 0.6-0.7 |
| O=S(=O)([O-])CCSSCCS(=O)(=O)[O-].[Na+].[Na+] [Dimesna] | 0.8-0.9 | 0.9-1^ | 0.9-1^ | 0.7-0.8 | – | – | – | – |
| C/C(=C\c1csc(C)n1)[C@@H]1C[C@@H]2O[C@@H]2CCC[C@H](C)[C@H](O)[C@@H](C)C(=O)C(C)(C)[C@@H](O)CC(=O)O1 [Epothilone A] | 0.8-0.9 | – | 0.9-1^ | 0.7-0.8 | – | – | – | – |
| C/C(=C\c1csc(C)n1)[C@@H]1C[C@@H]2O[C@]2(C)CCC[C@H](C)[C@H](O)[C@@H](C)C(=O)C(C)(C)[C@@H](O)CC(=O)O1 [Epothilone B] | 0.8-0.9 | – | 1< | 0.8-0.9 | – | – | – | – |
| CO[C@H]1/C=C\C=C(/C)C(=O)NC2=CC(=O)C(NCCN(C)C)=C(C[C@@H](C)C[C@H](OC)[C@H](O)[C@@H](C)/C=C(\C)[C@@H]1OC(N)=O)C2=O [Example 17-DMAG] | 0.8-0.9 | – | 0.9-1^ | 0.7-0.8 | – | – | – | – |
| C[C@]12CCC(=O)C(O)=C1CC[C@@H]1[C@@H]2CC[C@]2(C)C(=O)CC[C@@H]12 [Formestane] | 0.8-0.9 | 0.9-1^ | 0.9-1^ | 0.7-0.8 | – | – | – | – |
| Cc1cc2c(C(C)C)c(O)c(O)c(C=O)c2c(O)c1-c1c(C)cc2c(C(C)C)c(O)c(O)c(C=O)c2c1O [Gossypol] | 0.8-0.9 | 0.7-0.8 and 0.8-0.9 | 0.9-1^ | 0.9-1^ | – | – | – | – |
| CCOc1cc2ncc(C#N)c(Nc3ccc(OCc4ccccn4)c(Cl)c3)c2cc1NC(=O)/C=C/CN(C)C [Neratinib] | – | – | – | – | 0.8-0.9 | 1< | 0.9-1^ | 0.8-0.9 |
| C[C@](O)(COc1ccc(C#N)cc1)C(=O)Nc1ccc(C#N)c(C(F)(F)F)c1 [Ostarine] | 0.7-0.8 | 1< | 0.9-1^ | 0.8-0.9 | – | – | – | – |
| CC(=O)NCC(=O)N1[C@@H]2CC[C@H]1c1ccc(Nc3ncc(C(F)(F)F)c(NC4CCC4)n3)cc12 [PF-03814735] | – | – | 0.9-1^ | 0.7-0.8 | – | – | – | – |
| Cc1ccc([N+](=O)[O-])cc1S(=O)(=O)N(C)/N=C/c1cnc2ccc(Br)cn12 [PIK-75] | – | – | 1< | <0.5 | – | – | – | – |
| COc1ccc2c(c1OC)N=C(NC(=O)c1cccnc1)N1CCN=C21 [PIK-90] | – | – | 1< | 0.8-0.9 | – | – | – | – |
| CC(=O)Nc1nc(C)c(-c2ccc(Cl)c(S(=O)(=O)NCCO)c2)s1 [PIK-93] | 0.9-1^ | 0.6-0.7 | 1< | 1< | – | – | – | – |
| COc1ccc(COc2cc3oc(=O)c4cc(C(C)O)ccc4c3cc2OC)cc1 (stereo not shown) [Palomid 529] | – | – | 1< | 0.7-0.8 | – | – | – | – |
| Cc1ccc(C(=O)Nc2ccc(CN3CCN(C)CC3)c(C(F)(F)F)c2)cc1C#Cc1cnc2cccnn12 [Ponatinib] | – | – | – | – | 0.9-1^ | – | 0.9-1^ | 1< |
| CC(C)(C)c1cc(NC(=O)Nc2ccc(-c3cn4c(n3)sc3cc(OCCN5CCOCC5)ccc34)cc2)no1 [Quizartinin] | – | – | 1< | 0.8-0.9 | – | – | – | – |

| Molecule | sCI, minimum (Ld)/(Lc) of sphere formation rate (HCT116 cells [1]; [5]) | sCI, minimum (Ld)/(Lc) of sphere formation rate (H460 cells [2]; [6]) | sCI, minimum (Ld)/(Lc) of cell survival rate (HCT116 cells [3]; [7]) | sCI, minimum (Ld)/(Lc) of cell survival rate (H460 cells [4]; [8]) | sCI, minimum (Ld)/(Lc) of sphere formation rate (HCT116 cells [1]) | sCI, minimum (Ld)/(Lc) of sphere formation rate (H460 cells [2]) | sCI, minimum (Ld)/(Lc) of cell survival rate (HCT116 cells [3]) | sCI, minimum (Ld)/(Lc) of cell survival rate (H460 cells [4]) |
| --- | --- | --- | --- | --- | --- | --- | --- | --- |
| O=C(O)C(Cc1c[nH]c2ccccc12)N1C(=O)c2ccccc2C1=O (stereo not shown) [RG108] | – | – | 0.9-1^ | 0.9-1^ | – | – | – | – |
| CC[C@H](CO)Nc1nc(NCc2ccccc2)c2ncn(C(C)C)c2n1 [Roscovitine] | – | – | – | – | 0.8-0.9 | 1< | 0.9-1^ | 0.7-0.8 |
| CN(C)CCOc1ccc(-c2nc(-c3ccncc3)c(-c3ccc4c(c3)CC/C4=N\O)[nH]2)cc1 [SB590885] | – | – | 0.9-1^ | <0.5 | – | – | – | – |
| Cn1cc(C2=C(c3ccc(Cl)cc3Cl)C(=O)NC2=O)c2ccccc21 [SB 216763] | – | – | 0.9-1^ | 0.8-0.9 | – | – | – | – |
| NC(=O)c1ccc(-c2nc(-c3ccccn3)c(-c3ccc4c(c3)OCO4)[nH]2)cc1 [SB 431542] | – | – | 0.9-1^ | 0.6-0.7 | – | – | – | – |
| Cc1cccc(-c2[nH]c(C(C)(C)C)nc2-c2ccc3nccnc3c2)n1 [SB 525334] | – | – | 0.9-1^ | 0.9-1^ | – | – | – | – |
| Cc1ccc(C(=O)N(CCCN)[C@@H](c2oc3cc(Cl)ccc3c(=O)c2Cc2ccccc2)C(C)C)cc1 [SB 743921] | – | – | 1< | 0.8-0.9 | – | – | – | – |
| O=C(Nc1ccccc1-c1cn2c(CN3CCNCC3)csc2n1)c1cnc2ccccc2n1 [SRT1720] | – | – | 1< | 0.7-0.8 | – | – | – | – |
| Cc1cccc(Nc2nc(-c3ccncc3)cs2)c1 [STF-62247] | – | – | 0.9-1^ | 0.8-0.9 | – | – | – | – |
| CC[C@@H](C(=O)[C@@H](C)[C@@H](O)[C@H](C)[C@@H]1O[C@@H]([C@@H](CC)C(=O)O)CC[C@@H]1C)[C@H]1O[C@]2(C=C[C@@H](O)[C@]3(CC[C@@](C)([C@H]4CC[C@](O)(CC)[C@H](C)O4)O3)O2)[C@H](C)C[C@@H]1C [Salinomycin] | 1< | 0.9-1^ | 0.9-1^ | 1< | – | – | – | – |
| CCCC(=O)[O-].[Na+] [Sodium butyrate] | – | – | – | – | 0.8-0.9 | 0.9-1^ | 0.9-1^ | 0.7-0.8 |
| COc1ccc2cc(-c3nc(-c4ccc([S+](C)[O-])cc4)[nH]c3-c3ccncc3)ccc2c1 (stereo not shown) [Tie2 kinase inhibitor] | 0.7-0.8 | <0.5 | 0.9-1^ | 0.7-0.8 | – | – | – | – |
| CCC(=O)N1CCN(c2ccc(-n3c(=O)ccc4cnc5ccc(-c6cnc7ccccc7c6)cc5c43)cc2C(F)(F)F)CC1 [Torin 1] | – | – | 1< | 0.7-0.8 | – | – | – | – |
| Nc1ccc(-c2ccc3ncc4ccc(=O)n(-c5cccc(C(F)(F)F)c5)c4c3c2)cn1 [Torin 2] | – | – | 0.8-0.9 | 1< | – | – | – | – |
| CC(/C=C/C(=O)NO)=C\[C@@H](C)C(=O)c1ccc(N(C)C)cc1 [Trichostatin A] | – | – | 1< | 0.5-0.6 | – | – | – | – |
| CCC[C@H](NC(=O)/C(C#N)=C/c1cccc(Br)n1)c1ccccc1 [WP1130] | – | – | 1< | 1< | – | – | – | – |
| COC(=O)Nc1ccc(-c2nc(N3CCOCC3)c3cnn(C4CCN(C(=O)OC)CC4)c3n2)cc1 [WYE-354] | – | – | 1< | 0.9-1^ | – | – | – | – |
| C[C@H](NC(=O)Cc1cc(F)cc(F)c1)C(=O)N[C@@H]1C(=O)N(C)c2ccccc2-c2ccccc21 [YO-01027] | – | – | 1< | 0.6-0.7 | – | – | – | – |
| AZ 3146 | 0.9-1^ | 0.9-1^ | 1< | 0.7-0.8 | – | – | – | – |

From patent US20200268728A1, “DRUG TARGETING CANCER STEM CELL” (Sumitomo Dainippon Pharma Co., Ltd., priority 2016, published 2020)
